This note sets out measurements from PMC6381605, “NR4A Nuclear Receptors Target Poly-ADP-Ribosylated DNA-PKcs Protein to Promote DNA Repair”.

What all share (assay): EMSA
(A gel shift assay detects complexes by their altered migration in electrophoresis.)

Data set [1] addresses NR4A2 KRRY K303A,R310T,R311Q,Y317A (UniProt Q06219). The note with it: EMSA: 1 ug protein, 10 mM Tris pH 8, 50 mM NaCl, 1 mM EDTA, 5% glycerol, 5 mM DTT, 20 ng/ul dIdC, 1.25 mg/ml BSA, 20 min room temperature; recombinant protein; protein details: GST tag cleaved (PreScission); label: 32P (alpha-32P-dCTP Klenow fill-in).
A further data set addresses NR4A2 CEAA C280A,E281A (UniProt Q06219). The note with it: EMSA: 1 ug protein, 10 mM Tris pH 8, 50 mM NaCl, 1 mM EDTA, 5% glycerol, 5 mM DTT, 20 ng/ul dIdC, 1.25 mg/ml BSA, 20 min room temperature; recombinant protein; label: 32P (alpha-32P-dCTP Klenow fill-in).
The target in the next data set is NR4A2 C305A (UniProt Q06219). The settings on record: EMSA: 1 ug protein, 10 mM Tris pH 8, 50 mM NaCl, 1 mM EDTA, 5% glycerol, 5 mM DTT, 20 ng/ul dIdC, 1.25 mg/ml BSA, 20 min room temperature; recombinant protein; label: 32P (alpha-32P-dCTP Klenow fill-in).
A further data set deals with NR4A2 CC/AA (UniProt Q06219). The settings on record: EMSA: 1 ug protein, 10 mM Tris pH 8, 50 mM NaCl, 1 mM EDTA, 5% glycerol, 5 mM DTT, 20 ng/ul dIdC, 1.25 mg/ml BSA, 20 min room temperature; recombinant protein; label: 32P (alpha-32P-dCTP Klenow fill-in).
The target of a further data set is NR4A2 RR/TQ R310T,R311Q (UniProt Q06219). The settings on record: EMSA: 1 ug protein, 10 mM Tris pH 8, 50 mM NaCl, 1 mM EDTA, 5% glycerol, 5 mM DTT, 20 ng/ul dIdC, 1.25 mg/ml BSA, 20 min room temperature; recombinant protein; protein details: GST tag cleaved (PreScission); label: 32P (alpha-32P-dCTP Klenow fill-in).
For the next data set, the target named is NR4A2 RR/AA R310A,R311A (UniProt Q06219). The note with it: EMSA: 1 ug protein, 10 mM Tris pH 8, 50 mM NaCl, 1 mM EDTA, 5% glycerol, 5 mM DTT, 20 ng/ul dIdC, 1.25 mg/ml BSA, 20 min room temperature; recombinant protein; protein details: GST tag cleaved (PreScission); label: 32P (alpha-32P-dCTP Klenow fill-in).
A further data set addresses NR4A2 K303A (UniProt Q06219). The settings on record: EMSA: 1 ug protein, 10 mM Tris pH 8, 50 mM NaCl, 1 mM EDTA, 5% glycerol, 5 mM DTT, 20 ng/ul dIdC, 1.25 mg/ml BSA, 20 min room temperature; recombinant protein; protein details: GST tag cleaved (PreScission); label: 32P (alpha-32P-dCTP Klenow fill-in).
For the next data set, the target named is NR4A2 WT (UniProt Q06219). The note with it: EMSA: 1 ug protein, 10 mM Tris pH 8, 50 mM NaCl, 1 mM EDTA, 5% glycerol, 5 mM DTT, 20 ng/ul dIdC, 1.25 mg/ml BSA, 20 min room temperature; recombinant protein; protein details: GST tag cleaved (PreScission); label: 32P (alpha-32P-dCTP Klenow fill-in).

Construct, isoform or probe ends are uncertain for at least one entry. For some assays here: The comparison behind a weaker result is the experiment's own reference, which may not be listed here. For some assays here: At least one verdict was read from the data and is not stated in words by the source.

For the sequence “GATCCTCGTGCGAAAAGGTCAAGCGCTA / GATCTAGCGCTTGACCTTTTCGCACGAG [NBRE]”, the binding result is on record as “binds” in data set [1]; “binds more weakly” in the data set with NR4A2 CEAA C280A,E281A; “binds more weakly” in the data set with NR4A2 C305A; “binds more weakly” with NR4A2 CC/AA; “binds” in the data set with NR4A2 RR/TQ R310T,R311Q; “binds” in the data set with NR4A2 RR/AA R310A,R311A. The binding result with NR4A2 K303A and with NR4A2 WT was “binds” throughout.
